Among the data in paper PMC6095599 are binding values, retold here.

For assay [1], the target named is T1, GST–Cdc4 (budding yeast) (UniProt P07834).
T1 sequence: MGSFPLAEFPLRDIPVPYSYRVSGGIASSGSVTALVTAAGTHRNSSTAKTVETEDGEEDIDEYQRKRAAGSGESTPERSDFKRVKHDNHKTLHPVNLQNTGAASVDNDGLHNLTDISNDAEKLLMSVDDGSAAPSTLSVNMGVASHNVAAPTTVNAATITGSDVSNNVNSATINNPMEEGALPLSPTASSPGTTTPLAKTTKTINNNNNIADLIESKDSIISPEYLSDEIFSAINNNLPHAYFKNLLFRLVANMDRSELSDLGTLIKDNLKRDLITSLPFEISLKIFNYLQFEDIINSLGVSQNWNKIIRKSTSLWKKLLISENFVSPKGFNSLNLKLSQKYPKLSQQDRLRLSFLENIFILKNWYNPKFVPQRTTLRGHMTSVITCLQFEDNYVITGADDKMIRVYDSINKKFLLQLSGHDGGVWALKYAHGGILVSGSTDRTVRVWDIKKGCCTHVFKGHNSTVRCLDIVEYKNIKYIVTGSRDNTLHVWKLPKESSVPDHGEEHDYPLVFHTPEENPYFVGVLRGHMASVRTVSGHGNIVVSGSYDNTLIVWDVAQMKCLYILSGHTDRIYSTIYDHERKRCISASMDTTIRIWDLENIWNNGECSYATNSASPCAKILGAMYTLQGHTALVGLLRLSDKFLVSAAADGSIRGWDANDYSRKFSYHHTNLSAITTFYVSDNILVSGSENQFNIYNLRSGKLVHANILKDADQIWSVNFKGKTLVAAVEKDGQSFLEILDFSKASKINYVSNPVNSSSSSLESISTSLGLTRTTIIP
Put plainly: pull-down; GST or GST–Cdc4 affinity purified with glutathione beads from extracts of yeast cells co-expressing Mad3–3HA or Mad3 ΔGLEBS–3HA; immunoblot with αHA and αGST.

Assay [2] deals with T2, GST fusion to Mad3 (budding yeast) (UniProt P47074).
T2 sequence: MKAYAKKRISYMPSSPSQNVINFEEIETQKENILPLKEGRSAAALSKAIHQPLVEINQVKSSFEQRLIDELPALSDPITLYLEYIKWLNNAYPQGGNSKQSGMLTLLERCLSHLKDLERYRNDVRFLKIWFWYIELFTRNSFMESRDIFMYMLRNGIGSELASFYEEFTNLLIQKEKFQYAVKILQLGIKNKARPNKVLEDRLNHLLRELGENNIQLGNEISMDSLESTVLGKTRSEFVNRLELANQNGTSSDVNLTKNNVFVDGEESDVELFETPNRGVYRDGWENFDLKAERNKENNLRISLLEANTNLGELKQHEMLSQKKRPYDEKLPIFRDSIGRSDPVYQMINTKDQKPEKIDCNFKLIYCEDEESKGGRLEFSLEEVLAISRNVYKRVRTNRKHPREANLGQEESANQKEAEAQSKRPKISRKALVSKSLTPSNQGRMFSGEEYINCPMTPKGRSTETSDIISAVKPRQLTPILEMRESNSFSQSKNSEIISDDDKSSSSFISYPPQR
Description: pull-down; GST fusions affinity purified with glutathione beads from extracts of cdc4ts grr1 yeast cells co-expressing Cln3–13myc; immunoblot with αmyc and αGST.

These are yes or no findings as the source states them, for the method shown. In cells and extracts the contact can be indirect. Some results given as binding are weak or reduced against the parent protein; the word gives no strength. Sequences can lack the tags named with a protein.

B1: Mad3–3HA (protein, UniProt P47074 1-515)
chain: MKAYAKKRISYMPSSPSQNVINFEEIETQKENILPLKEGRSAAALSKAIHQPLVEINQVKSSFEQRLIDELPALSDPITLYLEYIKWLNNAYPQGGNSKQSGMLTLLERCLSHLKDLERYRNDVRFLKIWFWYIELFTRNSFMESRDIFMYMLRNGIGSELASFYEEFTNLLIQKEKFQYAVKILQLGIKNKARPNKVLEDRLNHLLRELGENNIQLGNEISMDSLESTVLGKTRSEFVNRLELANQNGTSSDVNLTKNNVFVDGEESDVELFETPNRGVYRDGWENFDLKAERNKENNLRISLLEANTNLGELKQHEMLSQKKRPYDEKLPIFRDSIGRSDPVYQMINTKDQKPEKIDCNFKLIYCEDEESKGGRLEFSLEEVLAISRNVYKRVRTNRKHPREANLGQEESANQKEAEAQSKRPKISRKALVSKSLTPSNQGRMFSGEEYINCPMTPKGRSTETSDIISAVKPRQLTPILEMRESNSFSQSKNSEIISDDDKSSSSFISYPPQR
In the case of B1, the binding result in assay [1] is recorded as “binds”.

B2: Cln3–13myc (protein, UniProt P13365 1-580)
chain: MAILKDTIIRYANARYATASGTSTATAASVSAASCPNLPLLLQKRRAIASAKSKNPNLVKRELQAHHSAISEYNNDQLDHYFRLSHTERPLYNLTNFNSQPQVNPKMRFLIFDFIMYCHTRLNLSTSTLFLTFTILDKYSSRFIIKSYNYQLLSLTALWISSKFWDSKNRMATLKVLQNLCCNQYSIKQFTTMEMHLFKSLDWSICQSATFDSYIDIFLFQSTSPLSPGVVLSAPLEAFIQQKLALLNNAAGTAINKSSSSQGPSLNINEIKLGAIMLCELASFNLELSFKYDRSLIALGAINLIKLSLNYYNSNLWENINLALEENCQDLDIKLSEISNTLLDIAMDQNSFPSSFKSKYLNSNKTSLAKSLLDALQNYCIQLKLEEFYRSQELETMYNTIFAQSFDSDSLTCVYSNATTPKSATVSSAATDYFSDHTHLRRLTKDSISPPFAFTPTSSSSSPSPFNSPYKTSSSMTTPDSASHHSHSGSFSSTQNSFKRSLSIPQNSSIFWPSPLTPTTPSLMSNRKLLQNLSVRSKRLFPVRPMATAHPCSAPTQLKKRSTSSVDCDFNDSSNLKKTR
Consider B2, for which, in assay [2], the binding result is “binds”.
